# Experimental data reported in the supplement of paper PMC4604168 (melanoma cell lines).
# This is one part of the list. Repeats are few or missing, and single values can be far off.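 The apoptosis fraction was the count of cleaved-PARP antibody-stained nuclei relative to all DNA-stained nuclei, imaged in 1,536-well plates. Screening doses were set so most cells survived, and baseline and induced cleaved-PARP levels vary greatly across cell lines.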
# Tests used:
# Assay in all cases: cleaved PARP positive nuclei fraction relative to DMSO control; melanoma cells; higher = more apoptosis
# Details in all cases: library dose: low library concentration; 72 h
# [1] = system: MZ2-MEL
# [2] = system: MeWo
# [3] = system: RPMI7951
# [4] = system: RVH-421
# [5] = system: SkMel28
# [6] = system: SkMel2
# [7] = system: SkMel30
# [8] = system: SkMel5
# [9] = system: UACC257
# [10] = system: UACC62
# [11] = system: WM115
# [12] = system: WM1716
# [13] = system: WM1745
# [14] = system: WM3526
# [15] = system: WM3619
# [16] = system: WM451Lu
Structure (SMILES),cleaved PARP positive nuclei fraction [1],cleaved PARP positive nuclei fraction [2],cleaved PARP positive nuclei fraction [3],cleaved PARP positive nuclei fraction [4],cleaved PARP positive nuclei fraction [5],cleaved PARP positive nuclei fraction [6],cleaved PARP positive nuclei fraction [7],cleaved PARP positive nuclei fraction [8],cleaved PARP positive nuclei fraction [9],cleaved PARP positive nuclei fraction [10],cleaved PARP positive nuclei fraction [11],cleaved PARP positive nuclei fraction [12],cleaved PARP positive nuclei fraction [13],cleaved PARP positive nuclei fraction [14],cleaved PARP positive nuclei fraction [15],cleaved PARP positive nuclei fraction [16]
"Nc1nc(F)nc2c1ncn2[C@@H]1O[C@H](CO)[C@@H](O)[C@@H]1O [fludarabine] + CN(C)S(=O)(=O)c1ccc2c(c1)/C(=C/c1cc3c([nH]1)CCCC3)C(=O)N2 [SU6656] (first compound 0.2 µM, partner dose 0.4 µM)",98.9%,559%,27.1%,96.2%,339%,467%,446%,372%,162%,150%,81.3%,84%,91.9%,420%,99.3%,82.5%
"C=C(c1ccc(C(=O)O)cc1)c1cc2c(cc1C)C(C)(C)CCC2(C)C [Bexarotene] + CO[C@@H]1[C@H](N(C)C(=O)c2ccccc2)C[C@H]2O[C@]1(C)n1c3ccccc3c3c4c(c5c6ccccc6n2c5c31)C(=O)NC4 [Midostaurin] (first compound 2 µM, partner dose 0.08 µM)",171%,255%,137%,68.2%,86.3%,121%,71.6%,154%,88.2%,93.2%,22%,206%,103%,363%,113%,87.1%
"Cn1c(=O)n(-c2ccc(C(C)(C)C#N)cc2)c2c3cc(-c4cnc5ccccc5c4)ccc3ncc21 + CCN(CC)CCCCNc1ncc2cc(-c3cc(OC)cc(OC)c3)c(NC(=O)NC(C)(C)C)nc2n1 [PD173074] (first compound 0.004 µM, partner dose 0.1 µM)",167%,50.1%,69.6%,65.4%,275%,27.7%,102%,67.1%,236%,277%,143%,246%,82.2%,80.2%,103%,138%
"C[C@@H](Oc1cc(-c2cnn(C3CCNCC3)c2)cnc1N)c1c(Cl)ccc(F)c1Cl [Crizotinib] + COc1cc2c(Oc3ccc4[nH]c(C)cc4c3F)ncnc2cc1OCCCN1CCCC1 [cediranib] (first compound 0.2 µM, partner dose 0.4 µM)",119%,203%,85.6%,174%,79.8%,122%,62.5%,87.2%,108%,102%,66%,58%,93.1%,166%,157%,58.9%
"CC(C)C[C@H](NC(=O)[C@H](Cc1ccccc1)NC(=O)c1cnccn1)B(O)O [Bortezomib] + O=c1cc(-c2cccc3c2Sc2ccccc2S3)oc(N2CCOCC2)c1 [KU55933] (first compound 0.001 µM, partner dose 1 µM)",217%,110%,64.4%,133%,260%,45%,136%,73.8%,366%,149%,148%,1280%,185%,108%,405%,180%
"C[C@@H](Oc1cc(-c2cnn(C3CCNCC3)c2)cnc1N)c1c(Cl)ccc(F)c1Cl [Crizotinib] + NCC(=O)Nc1ccc(-n2nc(C(F)(F)F)cc2-c2ccc3c(ccc4ccccc43)c2)cc1 [OSU03012] (first compound 0.2 µM, partner dose 1 µM)",60.8%,71.2%,131%,65.5%,101%,215%,210%,226%,113%,104%,116%,66.6%,97.3%,107%,81.6%,68.5%
"C=C(c1ccc(C(=O)O)cc1)c1cc2c(cc1C)C(C)(C)CCC2(C)C [Bexarotene] + COc1ccc(-c2ccc3c(N4CCOCC4)nc(N4C[C@@H](C)O[C@@H](C)C4)nc3n2)cc1CO [KU0063794] (first compound 2 µM, partner dose 0.02 µM)",114%,125%,250%,74.8%,230%,55.5%,170%,176%,153%,110%,157%,119%,105%,77.8%,102%,77%
"CCCS(=O)(=O)Nc1ccc(F)c(C(=O)c2c[nH]c3ncc(Cl)cc23)c1F + O=C(O)c1ccc(-c2c[nH]c3ncc(-c4ccccc4)cc23)cc1C1CCCC1 [GSK650394] (first compound 0.08 µM, partner dose 0.16 µM)",39.6%,160%,66.5%,73.5%,138%,114%,71.3%,28.9%,203%,128%,139%,123%,108%,115%,139%,118%
"Nc1ncn([C@H]2C[C@H](O)[C@@H](CO)O2)c(=O)n1 [decitabine] + O=C(O)c1ccc(-c2c[nH]c3ncc(-c4ccccc4)cc23)cc1C1CCCC1 [GSK650394] (first compound 0.1 µM, partner dose 0.16 µM)",80.3%,103%,123%,105%,99.8%,83.9%,257%,71.4%,107%,206%,58.5%,114%,98.2%,60.7%,82.1%,116%
"CS(=O)(=O)CCNCc1ccc(-c2ccc3ncnc(Nc4ccc(OCc5cccc(F)c5)c(Cl)c4)c3c2)o1 [lapatinib] + O=C(O)C(=O)Nc1sc2c(c1C(=O)O)CCNC2 [TCS401] (first compound 0.8 µM, partner dose 1.66667 µM)",75.2%,111%,196%,116%,55%,86.6%,39.9%,74.8%,139%,118%,95.2%,92.2%,99.3%,152%,86%,74%
"CNC(=O)c1cc(Oc2ccc(NC(=O)Nc3ccc(Cl)c(C(F)(F)F)c3)cc2)ccn1 [sorafenib] + C=CCn1c(=O)c2cnc(Nc3ccc(N4CCN(C)CC4)cc3)nc2n1-c1cccc(C(C)(C)O)n1 [MK1775] (first compound 0.4 µM, partner dose 0.02 µM)",61.3%,97.7%,108%,76.3%,92.7%,110%,62.7%,125%,223%,60.9%,79.4%,164%,96.5%,29.1%,133%,27.2%
"C=C(c1ccc(C(=O)O)cc1)c1cc2c(cc1C)C(C)(C)CCC2(C)C [Bexarotene] + O=C(O)C(=O)Nc1sc2c(c1C(=O)O)CCNC2 [TCS401] (first compound 2 µM, partner dose 1.66667 µM)",60.7%,32.4%,34.5%,134%,139%,58.4%,212%,45.5%,95.8%,114%,69.2%,109%,97.6%,47%,39.8%,80.1%
"O=C(O)c1ccc2c(c1)nc(Nc1cccc(Cl)c1)c1ccncc12 + O=C1NC(=O)/C(=C/c2ccc(-c3ccc(F)cc3O)o2)S1 [AS252424] (first compound 0.4 µM, partner dose 1 µM)",185%,95.8%,170%,82.5%,99.2%,72.4%,70.6%,177%,163%,126%,108%,124%,106%,250%,87.2%,67.4%
"CNC(=O)c1cc(Oc2ccc(NC(=O)Nc3ccc(Cl)c(C(F)(F)F)c3)cc2)ccn1 [sorafenib] + Cn1cc(/C=C2\C(=O)Nc3cccnc32)c2ccccc21 [GW441756] (first compound 0.4 µM, partner dose 0.4 µM)",114%,33.5%,39.9%,86.6%,185%,57.1%,42.1%,97.6%,187%,1080%,21.5%,184%,86.7%,64.9%,80.7%,205%
"CNC(=O)c1cc(Oc2ccc(NC(=O)Nc3ccc(Cl)c(C(F)(F)F)c3)cc2)ccn1 [sorafenib] + CCc1ccc(CCOc2ccc(CC3SC(=O)NC3=O)cc2)nc1 [pioglitazone] (first compound 0.4 µM, partner dose 2 µM)",103%,83.3%,73.7%,99.1%,108%,79.3%,159%,74.5%,83.5%,117%,15.5%,47.8%,92.7%,225%,78.6%,79.8%
"O=C(O)[C@@H]1[O][Sb](=[O])([O][Sb]2(=[O])[O][C@H]([C@H](O)CO)[C@H](O)[C@H](C(=O)O)[O]2)[O][C@H]([C@H](O)CO)[C@@H]1O (some centres not stated) [stibogluconate] + NC(=O)Nc1cc(-c2cccc(F)c2)sc1C(=O)N[C@H]1CCCNC1 [AZD7762] (first compound 2 µM, partner dose 0.02 µM)",137%,98.2%,41.5%,136%,163%,110%,65.3%,60.1%,51.6%,130%,109%,241%,181%,109%,119%,84.6%
"C=C(c1ccc(C(=O)O)cc1)c1cc2c(cc1C)C(C)(C)CCC2(C)C [Bexarotene] + Oc1cc(-c2nc(-c3ccccc3)[nH]c2-c2ccncc2)ccc1Cl [L779450] (first compound 2 µM, partner dose 0.2 µM)",90.9%,72.7%,132%,236%,83%,102%,78.4%,63.9%,16.8%,73.1%,56.5%,69.6%,83.3%,90.2%,95.7%,46.5%

# Full records, quoted from the list. Values in the order: cleaved PARP positive nuclei fraction [1]	cleaved PARP positive nuclei fraction [2]	cleaved PARP positive nuclei fraction [3]	cleaved PARP positive nuclei fraction [4]	cleaved PARP positive nuclei fraction [5]	cleaved PARP positive nuclei fraction [6]	cleaved PARP positive nuclei fraction [7]	cleaved PARP positive nuclei fraction [8]	cleaved PARP positive nuclei fraction [9]	cleaved PARP positive nuclei fraction [10]	cleaved PARP positive nuclei fraction [11]	cleaved PARP positive nuclei fraction [12]	cleaved PARP positive nuclei fraction [13]	cleaved PARP positive nuclei fraction [14]	cleaved PARP positive nuclei fraction [15]	cleaved PARP positive nuclei fraction [16]
# C=C(c1ccc(C(=O)O)cc1)c1cc2c(cc1C)C(C)(C)CCC2(C)C [Bexarotene] + O=C(O)C(=O)Nc1sc2c(c1C(=O)O)CCNC2 [TCS401] (first compound 2 µM, partner dose 1.66667 µM) in the list: 60.7%	32.4%	34.5%	134%	139%	58.4%	212%	45.5%	95.8%	114%	69.2%	109%	97.6%	47%	39.8%	80.1%
# CNC(=O)c1cc(Oc2ccc(NC(=O)Nc3ccc(Cl)c(C(F)(F)F)c3)cc2)ccn1 [sorafenib] + Cn1cc(/C=C2\C(=O)Nc3cccnc32)c2ccccc21 [GW441756] (first compound 0.4 µM, partner dose 0.4 µM) in the list: 114%	33.5%	39.9%	86.6%	185%	57.1%	42.1%	97.6%	187%	1080%	21.5%	184%	86.7%	64.9%	80.7%	205%
